Reference: ChEMBL document CHEMBL1221228, “Norselic acids A-E, highly oxidized anti-infective steroids that deter mesograzer predation, from the Antarctic sponge Crella sp” (2009)

Tested on: Candida albicans
Test: Antimicrobial activity against Candida albicans 54 at 100 units after 18 hrs by agar diffusion method
Type: functional, organism-based

## NYSTATIN
  inhibition zone (IZ): 15 mm
